# Experimental data as given in article PMC12040169 (PLOS Biology, 2025).
# This is one part of the list.
# Tested on: T1, CTL2-GFP (C. trachomatis L2/434/Bu, GFP-expressing)
# T1 construct: L2/434/Bu, GFP-expressing
# Set-up: species or system HeLa; Intracellular C. trachomatis growth in HeLa cells, bulk GFP fluorescence relative to DMSO
# Conditions: bulk GFP, single well; 28.5 h, 10 µM; inhibitor
row,Compound,% of control remaining [%]
1,O=C(c1cccs1)[C@H]1CCCN(C(=O)c2cc(C3CC3)n[nH]2)C1 [CBK282411],141.874
2,Cc1cc(N2CCN(C(=O)Cc3cccs3)CC2)nc(C(C)C)n1 [CBK305562],97.2552
3,COc1nccnc1NS(=O)(=O)c1ccc(Nc2c([N+](=O)[O-])cc([N+](=O)[O-])c3nonc23)cc1 [CBK261441],14.5241
4,CC(C)[C@H]1CN(Cc2ccco2)CCN1C(=O)N1CCCCC1 [CBK284272],102.613
5,O=C(O)/C=C/c1cccc(-c2cn3ccnc3c(N3CCN(c4ccncc4)CC3)n2)c1 [CBK066326],102.93
6,O=[N+]([O-])c1ccc2c(ccn2C2CC(O)C(CO)O2)c1 (centres unmarked) [CBK201163],147.414
7,COC(=O)COc1nccnc1-c1ccc(SC)cc1 [CBK106806],114.038
8,CC1CCCCC1NC(=O)c1ncoc1-c1cccs1 (centres unmarked) [CBK283973],132.107
9,CC1CCN(S(=O)(=O)c2ccc(C(=O)NC(C(=O)O)C(C)O)cc2)CC1 (centres unmarked) [CBK297151],127.261
10,Cn1c(=O)c2[nH]c(N3CCCNCC3)nc2n(C)c1=O [CBK270030],134.304
11,CC(NC(=O)Cc1cccc(F)c1)c1nc2cccnc2n1C(C)C (centres unmarked) [CBK283831],151.781
12,O=c1cc(N2CCN(CC3CCOC3)CC2)c(-c2ccccc2)n[nH]1 (centres unmarked) [CBK306957],128.146
13,CC(NC(=O)OC(C)(C)C)c1nnc(SCC(=O)N(C)C)o1 (centres unmarked) [CBK269932],127.796
14,CCOC(=O)c1cnn2c(O)cc(CN3CCCc4ccccc43)nc12 [CBK305694],113.516
15,O=C(O)c1cccc(S(=O)(=O)N(CCO)CCO)c1 [CBK263221],106.385
16,O=c1c([N+](=O)[O-])c[nH]c2nc(-c3ccncc3)nn12 [CBK288531N],122.955
17,Cc1cc(C(=O)N2CCN(Cc3ccc(F)cc3Cl)CC2)no1 [CBK268126],132.656
18,O=C1NCC2(CCN(Cc3ccccc3)CC2)Oc2ccccc21 [CBK285323],130.344
19,Cc1cccc(OCCn2cncc2-c2cnn(C)c2)c1C [CBK281497],122.01
20,N#C/C(=C/c1ccc(Sc2nc3ccccc3[nH]2)o1)c1ccc(C(=O)O)cc1 [CBK269141],106.098
21,O=C(Nc1ccccc1Cl)C1CCCN1S(=O)(=O)c1ccc(F)cc1 (centres unmarked) [CBK110161],100
22,CSc1nsc(SCC(=O)Nc2ccccc2C#N)n1 [CBK269826],100.425
23,COc1cc(CNCc2cccnc2)ccc1OCc1cccs1 [CBK270082C],109.028
24,Cc1c(-c2ccccc2)n[nH]c1C(=O)NCCCc1ccccn1 [CBK282445],129.303
25,Cc1ccc(N2C(=O)c3ccc(S(=O)(=O)c4cccc(C(=O)O)c4)cc3C2=O)c(C)c1 [CBK262783],100

# Entries from the list above with an aryl methoxy group, in the order listed:
row,Compound,% of control remaining [%]
3,COc1nccnc1NS(=O)(=O)c1ccc(Nc2c([N+](=O)[O-])cc([N+](=O)[O-])c3nonc23)cc1 [CBK261441],14.5241
23,COc1cc(CNCc2cccnc2)ccc1OCc1cccs1 [CBK270082C],109.028

# Remaining list, next part

row,Compound,% of control remaining [%]
1,O=C(CN1C2CCC1CC(O)(c1ccco1)C2)Nc1ccccc1F (centres unmarked) [CBK284109],135.153
2,COc1ccc2[nH]cc(CC(=O)Nc3cc(C)nc4ccccc34)c2c1 [CBK122732],95.3608
3,O=C(c1cccc(O)c1)N1CCN(Cc2cn3ccsc3n2)CC1 [CBK305275],125.038
4,Cc1[nH]nc2c1C(c1ccc(Cl)cc1)N(CCc1c[nH]c3ccccc13)C2=O (centres unmarked) [CBK287919],120.305
5,OC1(c2cccnc2)CCCC2CN(Cc3cc(F)ccc3F)CC21 (centres unmarked) [CBK284513],90.1475
6,c1ccc(C2=Nn3c(Cn4nnc5ccccc54)nnc3SC2)cc1 [CBK268232],113.205
7,Oc1ccc(-n2ncc(-c3ccc(Cl)cc3)n2)cc1 [CBK112794],110.959
8,CS(=O)(=O)c1ccc2nc(NC(=O)Cc3ccccc3)sc2c1 [CBK287339],132.567
9,Cn1c(CN2CCCC2)nc2cc(NC(=O)C3CCCCC3)ccc21 [CBK307418],102.08
10,COc1cc(NC(=O)CSc2nncn2C)c(OC)cc1Cl [CBK270307],119.5
11,O=C(c1cc2c(F)cccc2[nH]1)N1CCCCC1CCN1CCCC1 (centres unmarked) [CBK281612],159.847
12,Cc1cnc2[nH]c(C3CCN(C(=O)c4cnn(C)c4C)CC3)cc2c1 [CBK284684],111.288
13,Cc1cc2c(s1)c1cnn(CC(=O)NC3CC3)c(=O)c1n2C [CBK284246],149.169
14,CS(=O)(=O)N1CC2(CCN(Cc3ccccc3)CC2)c2ccccc21 [CBK084003],107.371
15,C[C@H](c1ccccc1)n1c(=O)[nH]c2ncc(-c3cccc4ccccc34)nc21 [CBK064241],102.517
16,O=C(Oc1ccc(/C=N/NC(=O)C2COc3ccccc3O2)cc1)c1cccnc1 (centres unmarked) [CBK262811],100
17,COc1ccccc1-c1ccnc(N[C@H]2CO[C@H]3[C@@H]2OC[C@@H]3NC(=O)C2CCCCC2)n1 [CBK289529],122.233
18,COc1ccc(CCN2CCCN(c3nccc(OCc4ccc(Cl)c(Cl)c4)n3)CC2)cc1OC [CBK083965],102.763
19,Cc1[nH]c2c(C(=O)Nc3cccc(CN4CCOC4=O)c3)cccc2c1C [CBK298338],145.12
20,CC(C)Cn1cnc(S(=O)(=O)N2CCN(CC(=O)NC3CC3)CC2)c1 [CBK304223],96.1096
21,CCc1ccc(-c2noc(CSc3n[nH]c(=O)n3CCCOC)n2)cc1 [CBK295656],139.691
22,CCC(=O)N(C)C(CO)c1cc(OC)ccc1Br (centres unmarked) [CBK304156],139.176
23,CC(CC(=O)O)CC(=O)N1CCC2(CC1)NC(=O)Cc1ccccc12 (centres unmarked) [CBK047281],104.457
24,O=C(Nc1ncnc2nc[nH]c12)NC1CCCCC1 [CBK022860],118.087
25,CCOC(=O)c1cn(CC#N)c2cc(F)c(F)cc2c1=O [CBK304211],111.271
